In the supplement of paper PMC4604168 (melanoma cell lines):
The other results are listed elsewhere or left out. Single values are uncertain, as repeats are few or missing.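 Imaging used 1,536-well plates; nuclei positive for cleaved PARP by antibody were divided by total DNA-stained nuclei to yield the apoptosis fraction. Doses for screening kept most cells viable, and cell lines differ markedly in resting and induced cleaved-PARP levels.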

These molecules were tested on 501Mel (assay: cleaved PARP positive nuclei fraction relative to DMSO control; melanoma cells; higher = more apoptosis). Settings: library dose: low library concentration; 72 h.

Row | Compound | cleaved PARP positive nuclei fraction [%]
1 | Clc1ccc(Nc2nnc(Cc3ccncc3)c3ccccc23)cc1 [vatalanib] + COc1cc2c(Oc3ccc4[nH]c(C)cc4c3F)ncnc2cc1OCCCN1CCCC1 [cediranib] (first compound 2 µM, partner dose 0.4 µM) | 109
2 | Cn1nnc2c(C(N)=O)ncn2c1=O [temozolomide] + O=C(O)c1ccc(-c2c[nH]c3ncc(-c4ccccc4)cc23)cc1C1CCCC1 [GSK650394] (first compound 2 µM, partner dose 0.16 µM) | 83
3 | CC1(C)NC(=O)N(c2ccc([N+](=O)[O-])c(C(F)(F)F)c2)C1=O [nilutamide] + CC(C)(C)c1cnc(CSc2cnc(NC(=O)C3CCNCC3)s2)o1 [SNS-032] (first compound 1 µM, partner dose 0.01 µM) | 80.3
4 | CC(C)(C)c1cnc(CSc2cnc(NC(=O)C3CCNCC3)s2)o1 + CN(C)S(=O)(=O)c1ccc2c(c1)/C(=C/c1cc3c([nH]1)CCCC3)C(=O)N2 [SU6656] (first compound 0.01 µM, partner dose 0.4 µM) | 78.3
5 | CC(=O)c1c(C)c2cnc(Nc3ccc(N4CCNCC4)cn3)nc2n(C2CCCC2)c1=O [palbociclib] + CN(C)S(=O)(=O)c1ccc2c(c1)/C(=C/c1cc3c([nH]1)CCCC3)C(=O)N2 [SU6656] (first compound 0.04 µM, partner dose 0.4 µM) | 204
6 | CO[C@@H]1[C@H](N(C)C(=O)c2ccccc2)C[C@H]2O[C@]1(C)n1c3ccccc3c3c4c(c5c6ccccc6n2c5c31)C(=O)NC4 [Midostaurin] + C[C@@H]1CCN(C(=O)CC#N)C[C@@H]1N(C)c1ncnc2[nH]ccc12 [CP690550] (first compound 0.08 µM, partner dose 1 µM) | 148
